The chains behind the UniProt entries cited, without tags or fusion partners.
UniProt P11387: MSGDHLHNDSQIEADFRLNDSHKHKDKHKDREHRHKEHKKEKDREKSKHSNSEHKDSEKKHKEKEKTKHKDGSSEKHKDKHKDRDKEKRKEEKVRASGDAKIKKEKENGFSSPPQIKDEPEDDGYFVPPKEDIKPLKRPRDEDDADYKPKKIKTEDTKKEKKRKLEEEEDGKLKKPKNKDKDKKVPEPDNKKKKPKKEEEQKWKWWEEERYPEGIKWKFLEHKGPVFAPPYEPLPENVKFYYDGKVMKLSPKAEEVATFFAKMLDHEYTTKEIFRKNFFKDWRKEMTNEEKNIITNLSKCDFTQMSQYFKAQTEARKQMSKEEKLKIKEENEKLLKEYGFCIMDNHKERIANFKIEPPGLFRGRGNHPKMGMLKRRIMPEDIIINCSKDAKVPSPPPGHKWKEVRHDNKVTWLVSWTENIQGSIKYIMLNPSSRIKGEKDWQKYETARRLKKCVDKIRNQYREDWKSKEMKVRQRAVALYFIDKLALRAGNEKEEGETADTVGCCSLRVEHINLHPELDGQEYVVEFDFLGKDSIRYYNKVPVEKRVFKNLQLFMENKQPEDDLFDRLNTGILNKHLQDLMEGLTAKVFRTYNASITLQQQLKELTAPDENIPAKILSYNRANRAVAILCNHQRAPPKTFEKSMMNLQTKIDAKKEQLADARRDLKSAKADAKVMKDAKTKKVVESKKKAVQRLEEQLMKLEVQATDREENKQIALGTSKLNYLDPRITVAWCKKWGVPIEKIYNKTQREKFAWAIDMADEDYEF

In PMC10290057:

Legend:
[1] = molecular target: DCAF13-FLAG putative WD40 repeat #1 Δ (human) (UniProt Q9NV06); test: co-IP; FLAG-IP (anti-FLAG M2, Protein A/G PLUS-agarose) from benzonase-treated lysates of HCT116 cells transfected with DCAF13-FLAG constructs, CPT (20 µM, 30 min) in presence of BTZ (1 µM); washed with RIPA buffer; immunoblot
[2] = molecular target: 6×His-tagged TOP1 core domain (CD) (human); test: pull-down; His-tag pull-down from lysates of HCT116 cells expressing 6×His-TOP1 constructs and DCAF13-FLAG; lysate in IP lysis buffer, sonicated, benzonase-treated, then Ni-NTA-agarose overnight at 4 °C in Buffer A (6 M guanidine-HCl, 0.1 M Na2HPO4/NaH2PO4, 10 mM imidazole pH 8.0); immunoblot; cells treated with DMSO or CPT (20 µM, 30 min) ± APH (10 µM), or CPT with BTZ (1 µM)

binding [1]: binds
Molecule: TOP1, endogenous (co-precipitated with DCAF13-FLAG constructs) (from UniProt P11387 1-765) (enzyme)

binding [2]: binds
B1: DCAF13-FLAG (DDB1 and Cullin Associated Factor 13), wild type (protein, UniProt Q9NV06 1-445)
chain: MKVKMLSRNPDNYVRETKLDLQRVPRNYDPALHPFEVPREYIRALNATKLERVFAKPFLASLDGHRDGVNCLAKHPEKLATVLSGACDGEVRIWNLTQRNCIRTIQAHEGFVRGICTRFCGTSFFTVGDDKTVKQWKMDGPGYGDEEEPLHTILGKTVYTGIDHHWKEAVFATCGQQVDIWDEQRTNPICSMTWGFDSISSVKFNPIETFLLGSCASDRNIVLYDMRQATPLKKVILDMRTNTICWNPMEAFIFTAANEDYNLYTFDMRALDTPVMVHMDHVSAVLDVDYSPTGKEFVSASFDKSIRIFPVDKSRSREVYHTKRMQHVICVKWTSDSKYIMCGSDEMNIRLWKANASEKLGVLTSREKAAKDYNQKLKEKFQHYPHIKRIARHRHLPKSIYSQIQEQRIMKEARRRKEVNRIKHSKPGSVPLVSEKKKHVVAVVK

Results are given in words; binding and its absence hold for the method and conditions named. Binding seen in cells or lysates may run through a third protein. A result given as binding can be weak or reduced; the word gives no strength. For some assays here: Where a sequence is shown, tags or fusion partners need not be part of it. Each block holds one molecule with its values, some of them ahead of it.
